Source: US8063109B2, “Formulations for parenteral administration of (e)-2, 6-dialkoxystyryl 4-substituted benzylsulfones” (Onconova Therapeutics, Inc., priority 2004, dated 2011)
“And” between values parts separate entries of the source, which are not always exact repeats. Equal entries are not always repeated. At least one compound was matched to its structure with a doubt left.

What was measured:
[1] = Long term stability of ON 01910.Na 75 mg/mL in 100% PEG-400 for clinical use (HPLC); assay type: physicochemical
Procedure: ON 01910.Na IV solution was manufactured at a concentration of 75 mg/mL in 100% PEG-400. The finished product consisted of 3 mL of drug product aseptically filled into presterilized 5 mL vials. The manufacturing was in compliance with current Good Manufacturing Practices regulations.
(a) HPLC—Chromatography is performed using a Phenomenex Luna C-18 (2), 5 micron (4.6 mm×250 mm, PN 00G-4252-E0) column at ambient conditions. The mobile phase used is 60%-0.1% trifluoroacetic acid in water; 40% acetonitrile. The flow rate is set at 2.0 ml/min. Injection volume is 50 μL. Detection is accomplished by means of a UV/VIS detector at 230, 254, and 320 nm. Instrument control and data acquisition is facilitated using a Waters Millennium (V 2.15) software package. The external calibration is obtained using ON 01910.Na standard solutions prepared in 50:50 acetonitrile:water. This analytical method was validated.

[2] = Infusion bag compatibility study; assay type: physicochemical
[3] = Infusion set compatibility study; assay type: physicochemical; details: 80 mg in 0.9% Sodium Chloride
mouse xenograft = experiment: Mouse xenograft preclinical laboratory experiments; assay type: in vivo; details: 100% PEG-400 formulation
[4] = 5° C. Storage, Day 180, weighed samples
[5] = 5° C. Storage, Day 270, weighed samples
[6] = 5° C. Storage, Day 365, weighed samples
[7] = 25° C. Storage, Day 180, weighed samples
[8] = 25° C. Storage, Day 270, weighed samples
[9] = 25° C. Storage, Day 365, weighed samples
[10] = 80 mg in 250 ml 0.9% Sodium Chloride IV bag, 2 hours

Compound: COc1cc(OC)c(/C=C/S(=O)(=O)Cc2ccc(OC)c(NCC(=O)[O-])c2)c(OC)c1.[Na+] [ON 01910.Na, (E)-2,4,6-trimethoxystyryl-3-carboxymethylamino-4-methoxybenzylsulfone]
- Assay ([1]; 5° C. Storage, Day 0): 72.81 mg/mL and 78.26 mg/mL and 78.39 mg/mL
- Average Assay (mg/mL) [% RSD] ([1]; 5° C. Storage, Day 0): 76.49 [4.16] mg/mL
- Assay ([1]; 5° C. Storage, Day 30): 70.17 mg/mL and 75.86 mg/mL and 72.63 mg/mL
- Average Assay (mg/mL) [% RSD] ([1]; 5° C. Storage, Day 30): 72.88 [3.91] mg/mL
- Assay ([1]; 5° C. Storage, Day 90): 76.35 mg/mL and 69.57 mg/mL and 67.81 mg/mL
- Average Assay (mg/mL) [% RSD] ([1]; 5° C. Storage, Day 90): 71.24 [6.33] mg/mL
- Assay [1, 4]: 74.52 mg/mL and 75.94 mg/mL and 74.61 mg/mL
- Average Assay (mg/mL) [% RSD] [1, 4]: 75.02 [1.1] mg/mL
- Assay [1, 5]: 76.72 mg/mL and 77.12 mg/mL and 77.51 mg/mL
- Average Assay (mg/mL) [% RSD] [1, 5]: 77.12 [0.52] mg/mL
- Assay [1, 6]: 77.75 mg/mL and 79.53 mg/mL and 78.64 mg/mL
- Average Assay (mg/mL) [% RSD] [1, 6]: 78.64 (1.13) mg/mL
- Assay ([1]; 25° C. Storage, Day 0): 72.81 mg/mL and 78.26 mg/mL and 78.39 mg/mL
- Average Assay (mg/mL) [% RSD] ([1]; 25° C. Storage, Day 0): 76.49 [4.16] mg/mL
- Assay ([1]; 25° C. Storage, Day 30): 77.77 mg/mL and 78.14 mg/mL and 78.92 mg/mL
- Average Assay (mg/mL) [% RSD] ([1]; 25° C. Storage, Day 30): 78.28 [0.75] mg/mL
- Assay ([1]; 25° C. Storage, Day 90): 71.74 mg/mL and 70.20 mg/mL and 67.96 mg/mL
- Average Assay (mg/mL) [% RSD] ([1]; 25° C. Storage, Day 90): 69.97 [2.72] mg/mL
- Assay [1, 7]: 73.34 mg/mL and 70.40 mg/mL and 70.39 mg/mL
- Average Assay (mg/mL) [% RSD] [1, 7]: 71.38 [2.4] mg/mL
- Assay [1, 8]: 74.94 mg/mL and 74.12 mg/mL and 73.81 mg/mL
- Average Assay (mg/mL) [% RSD] [1, 8]: 74.29 [0.79] mg/mL
- Assay [1, 9]: 77.88 mg/mL and 77.47 mg/mL and 77.34 mg/mL
- Average Assay (mg/mL) [% RSD] [1, 9]: 77.56 (0.36) mg/mL
- time stable in IV infusion bags ([2]; 75 mg/ml in PEG-400, bags containing 0.45% NaCl and 0.9% NaCl solutions): over 24 hours
- Appearance ([2]; 80 mg in 250 ml 0.9% Sodium Chloride IV bag, 1 hour): Slight
- Appearance [2, 10]: Slight
- Assay ON01910.Na (% T0) [2, 10]: (99.9%)
- Appearance ([2]; 80 mg in 250 ml 0.9% Sodium Chloride IV bag, 4 hours): Slight
- Appearance ([2]; 80 mg in 250 ml 0.9% Sodium Chloride IV bag, 8 hours): Slight
- Appearance ([2]; 80 mg in 250 ml 0.9% Sodium Chloride IV bag, 24.5 hours): Slight
- Appearance ([2]; 80 mg in 250 ml 0.9% Sodium Chloride IV bag, Initial): Slight
- Appearance ([2]; 800 mg in 250 ml 0.45% Sodium Chloride IV bag, 24.5 hours): Yellow Solution
- Appearance ([3]; 1st 5 ml): Slight
- Appearance ([3]; 2nd 5 ml): Slight
- Appearance ([3]; 3rd 5 ml): Slight
- Appearance ([3]; 30 min): Slight
- Appearance ([3]; 60 min): Slight
- Appearance ([3]; 120 min): Slight
- efficacy in mouse xenograft (mouse xenograft): Efficacy of this formulation, for example, has been observed
